Among the data in publication PMC7461561 are binding values, retold here.

Sequences of proteins named here, by UniProt entry; tags and fusion partners are left off.
UniProt O60260: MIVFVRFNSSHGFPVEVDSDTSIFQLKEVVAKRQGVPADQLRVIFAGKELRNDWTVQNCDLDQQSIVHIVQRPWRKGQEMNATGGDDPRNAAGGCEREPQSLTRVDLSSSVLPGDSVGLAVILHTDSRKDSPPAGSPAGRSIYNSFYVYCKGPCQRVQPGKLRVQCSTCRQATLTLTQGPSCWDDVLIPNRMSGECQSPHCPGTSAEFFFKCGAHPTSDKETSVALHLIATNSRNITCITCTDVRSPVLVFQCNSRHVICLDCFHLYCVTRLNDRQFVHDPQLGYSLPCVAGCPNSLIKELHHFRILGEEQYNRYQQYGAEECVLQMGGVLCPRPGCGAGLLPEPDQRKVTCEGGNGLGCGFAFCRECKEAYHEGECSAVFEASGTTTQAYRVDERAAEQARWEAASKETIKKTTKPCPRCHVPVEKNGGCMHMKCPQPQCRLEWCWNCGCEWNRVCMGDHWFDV

These are yes or no findings as the source states them, for the method shown. Binding seen in cells or lysates may run through a third protein. Here binding means that the protein was enriched with, or labelled near, the bait; the list need not be complete.

The target in this test is Parkin (human (endogenous in platelets)) (UniProt O60260). The experiment in a line: affinity purification with mass spectrometry; IP with Parkin-specific antibodies from human DM platelet lysate; silver-stained gel, 10 bands enriched in DM against HC cut out; in-gel trypsin digestion, LC-MS/MS, Mascot search.

B1: Platelet glycoprotein IX (protein, UniProt P14770 17-177)
chain: TKDCPSPCTCRALETMGLWVDCRGHGLTALPALPARTRHLLLANNSLQSVPPGAFDHLPQLQTLDVTQNPWHCDCSLTYLRLWLEDRTPEALLQVRCASPSLAAHGPLGRLTGYQLGSCGWQLQASWVRPGVLWDVALVAVAALGLALLAGLLCATTEALD
For B1, the binding result is reported as “binds”.

B2: Multimerin-1 (protein, UniProt Q13201 20-1228)
chain: LNNSKHSWTIPEDGNSQKTMPSASVPPNKIQSLQILPTTRVMSAEIATTPEARTSEDSLLKSTLPPSETSAPAEGVRNQTLTSTEKAEGVVKLQNLTLPTNASIKFNPGAESVVLSNSTLKFLQSFARKSNEQATSLNTVGGTGGIGGVGGTGGVGNRAPRETYLSRGDSSSSQRTDYQKSNFETTRGKNWCAYVHTRLSPTVILDNQVTYVPGGKGPCGWTGGSCPQRSQKISNPVYRMQHKIVTSLDWRCCPGYSGPKCQLRAQEQQSLIHTNQAESHTAVGRGVAEQQQQQGCGDPEVMQKMTDQVNYQAMKLTLLQKKIDNISLTVNDVRNTYSSLEGKVSEDKSREFQSLLKGLKSKSINVLIRDIVREQFKIFQNDMQETVAQLFKTVSSLSEDLESTRQIIQKVNESVVSIAAQQKFVLVQENRPTLTDIVELRNHIVNVRQEMTLTCEKPIKELEVKQTHLEGALEQEHSRSILYYESLNKTLSKLKEVHEQLLSTEQVSDQKNAPAAESVSNNVTEYMSTLHENIKKQSLMMLQMFEDLHIQESKINNLTVSLEMEKESLRGECEDMLSKCRNDFKFQLKDTEENLHVLNQTLAEVLFPMDNKMDKMSEQLNDLTYDMEILQPLLEQGASLRQTMTYEQPKEAIVIRKKIENLTSAVNSLNFIIKELTKRHNLLRNEVQGRDDALERRINEYALEMEDGLNKTMTIINNAIDFIQDNYALKETLSTIKDNSEIHHKCTSDMETILTFIPQFHRLNDSIQTLVNDNQRYNFVLQVAKTLAGIPRDEKLNQSNFQKMYQMFNETTSQVRKYQQNMSHLEEKLLLTTKISKNFETRLQDIESKVTQTLIPYYISVKKGSVVTNERDQALQLQVLNSRFKALEAKSIHLSINFFSLNKTLHEVLTMCHNASTSVSELNATIPKWIKHSLPDIQLLQKGLTEFVEPIIQIKTQAALSNLTCCIDRSLPGSLANVVKSQKQVKSLPKKINALKKPTVNLTTVLIGRTQRNTDNIIYPEEYSSCSRHPCQNGGTCINGRTSFTCACRHPFTGDNCTIKLVEENALAPDFSKGSYRYAPMVAFFASHTYGMTIPGPILFNNLDVNYGASYTPRTGKFRIPYLGVYVFKYTIESFSAHISGFLVVDGIDKLAFESENINSEIHCDRVLTGDALLELNYGQEVWLRLAKGTIPAKFPPVTTFSGYLLYRT
For B2, the binding entry is “binds”.

B3: Protein S100-A9 (protein, UniProt P06702 1-114)
chain: MTCKMSQLERNIETIINTFHQYSVKLGHPDTLNQGEFKELVRKDLQNFLKKENKNEKVIEHIMEDLDTNADKQLSFEEFIMLMARLTWASHEKMHEGDEGPGHHHKPGLGEGTP
For the molecule B3, the binding result was “binds”.

B4: ATP synthase subunit e, mitochondrial (protein, UniProt P56385 1-69)
chain: MVPPVQVSPLIKLGRYSALFLGVAYGATRYNYLKPRAEEERRIAAEEKKKQDELKRIARELAEDDSILK
For the molecule B4, the binding result is given as “binds”.

B5: Peroxiredoxin-1 (protein, UniProt Q06830 1-199)
chain: MSSGNAKIGHPAPNFKATAVMPDGQFKDISLSDYKGKYVVFFFYPLDFTFVCPTEIIAFSDRAEEFKKLNCQVIGASVDSHFCHLAWVNTPKKQGGLGPMNIPLVSDPKRTIAQDYGVLKADEGISFRGLFIIDDKGILRQITVNDLPVGRSVDETLRLVQAFQFTDKHGEVCPAGWKPGSDTIKPDVQKSKEYFSKQK
For B5, the binding result is “binds”.

B6: Cytosolic Fe-S cluster assembly factor NUBP2 (protein, UniProt Q9Y5Y2 1-271)
chain: MEAAAEPGNLAGVRHIILVLSGKGGVGKSTISTELALALRHAGKKVGILDVDLCGPSIPRMLGAQGRAVHQCDRGWAPVFLDREQSISLMSVGFLLEKPDEAVVWRGPKKNALIKQFVSDVAWGELDYLVVDTPPGTSDEHMATIEALRPYQPLGALVVTTPQAVSVGDVRRELTFCRKTGLRVMGIVENMSGFTCPHCTECTSVFSRGGGEELAQLAGVPFLGSVPLDPALMRTLEEGHDFIQEFPGSPAFAALTSIAQKILDATPACLP
As to B6, the binding entry is “binds”.

B7: Protein disulfide-isomerase A6 (protein, UniProt Q15084 20-440)
chain: LYSSSDDVIELTPSNFNREVIQSDSLWLVEFYAPWCGHCQRLTPEWKKAATALKDVVKVGAVDADKHHSLGGQYGVQGFPTIKIFGSNKNRPEDYQGGRTGEAIVDAALSALRQLVKDRLGGRSGGYSSGKQGRSDSSSKKDVIELTDDSFDKNVLDSEDVWMVEFYAPWCGHCKNLEPEWAAAASEVKEQTKGKVKLAAVDATVNQVLASRYGIRGFPTIKIFQKGESPVDYDGGRTRSDIVSRALDLFSDNAPPPELLEIINEDIAKRTCEEHQLCVVAVLPHILDTGAAGRNSYLEVLLKLADKYKKKMWGWLWTEAGAQSELETALGIGGFGYPAMAAINARKMKFALLKGSFSEQGINEFLRELSFGRGSTAPVGGGAFPTIVEREPWDGRDGELPVEDDIDLSDVELDDLGKDEL
For B7, the binding result was “binds”.

B8: Single-Stranded DNA-binding protein, mitochondrial (protein, UniProt Q04837 17-148)
chain: ESETTTSLVLERSLNRVHLLGRVGQDPVLRQVEGKNPVTIFSLATNEMWRSGDSEVYQLGDVSQKTTWHRISVFRPGLRDVAYQYVKKGSRIYLEGKIDYGEYMDKNNVRRQATTIIADNIIFLSDQTKEKE
In the case of B8, the binding entry is “binds”.

B9: Platelet factor 4 (protein, UniProt P02776 32-101)
chain: EAEEDGDLQCLCVKTTSQVRPRHITSLEVIKAGPHCPTAQLIATLKNGRKICLDLQAPLYKKIIKKLLES
Regarding B9, the binding entry is “binds”.

B10: 14-3-3 protein gamma (protein, UniProt P61981 1-247)
chain: MVDREQLVQKARLAEQAERYDDMAAAMKNVTELNEPLSNEERNLLSVAYKNVVGARRSSWRVISSIEQKTSADGNEKKIEMVRAYREKIEKELEAVCQDVLSLLDNYLIKNCSETQYESKVFYLKMKGDYYRYLAEVATGEKRATVVESSEKAYSEAHEISKEHMQPTHPIRLGLALNYSVFYYEIQNAPEQACHLAKTAFDDAIAELDTLNEDSYKDSTLIMQLLRDNLTLWTSDQQDDDGGEGNN
Consider B10, for which the binding result is recorded as “binds”.

B11: Peroxisomal multifunctional enzyme type 2 (protein, UniProt P51659 1-736)
chain: MGSPLRFDGRVVLVTGAGAGLGRAYALAFAERGALVVVNDLGGDFKGVGKGSLAADKVVEEIRRRGGKAVANYDSVEEGEKVVKTALDAFGRIDVVVNNAGILRDRSFARISDEDWDIIHRVHLRGSFQVTRAAWEHMKKQKYGRIIMTSSASGIYGNFGQANYSAAKLGLLGLANSLAIEGRKSNIHCNTIAPNAGSRMTQTVMPEDLVEALKPEYVAPLVLWLCHESCEENGGLFEVGAGWIGKLRWERTLGAIVRQKNHPMTPEAVKANWKKICDFENASKPQSIQESTGSIIEVLSKIDSEGGVSANHTSRATSTATSGFAGAIGQKLPPFSYAYTELEAIMYALGVGASIKDPKDLKFIYEGSSDFSCLPTFGVIIGQKSMMGGGLAEIPGLSINFAKVLHGEQYLELYKPLPRAGKLKCEAVVADVLDKGSGVVIIMDVYSYSEKELICHNQFSLFLVGSGGFGGKRTSDKVKVAVAIPNRPPDAVLTDTTSLNQAALYRLSGDWNPLHIDPNFASLAGFDKPILHGLCTFGFSARRVLQQFADNDVSRFKAIKARFAKPVYPGQTLQTEMWKEGNRIHFQTKVQETGDIVISNAYVDLAPTSGTSAKTPSEGGKLQSTFVFEEIGRRLKDIGPEVVKKVNAVFEWHITKGGNIGAKWTIDLKSGSGKVYQGPAKGAADTTIILSDEDFMEVVLGKLDPQKAFFSGRLKARGNIMLSQKLQMILKDYAKL
In the case of B11, the binding entry is recorded as “binds”.
